# Experimental data taken from the supplement of paper PMC8728848.
# The list shows a part of the results.
# Legend:
# Assay in all cases: glycan array binding signal (z-score within array); higher = stronger binding
# Settings in all cases: glycan notation: IUPAC condensed, linker removed
# [1] = target: GlcNAc(b1-3)Gal(b1-4)GlcNAc(b1-2)Man(a1-3)[GlcNAc(b1-3)Gal(b1-4)GlcNAc(b1-2)Man(a1-6)]Man(b1-4)GlcNAc(b1-4)GlcNAc
# Procedure, shortened: (§1)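 Glycan array data were curated from 3228 arrays in the Consortium for Functional Glycomics database and kept only where the protein sequence was available. Glycan names were converted to IUPAC-condensed notation, and columns mapping to the same glycan were averaged. The binding signal is a within-array Z-score, averaged across arrays of the same protein sequence at different concentrations or buffers and across linkers. Negative Z-scores can be read as non-binding.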
# [2] = target: GlcNAc(b1-3)Gal(b1-4)GlcNAc(b1-2)Man(a1-3)[GlcNAc(b1-3)Gal(b1-4)GlcNAc(b1-2)Man(a1-6)]Man(b1-4)GlcNAc(b1-4)[Fuc(a1-6)]GlcNAc
# Procedure, shortened: as §1
# [3] = target: GlcNAc(b1-3)Gal(b1-4)GlcNAc(b1-2)[GlcNAc(b1-3)Gal(b1-4)GlcNAc(b1-6)]Man(a1-6)[GlcNAc(b1-3)Gal(b1-4)GlcNAc(b1-2)Man(a1-3)]Man(b1-4)GlcNAc(b1-4)GlcNAc
# Procedure, shortened: as §1
# [4] = target: GlcNAc(b1-3)Gal(b1-4)GlcNAc(b1-3)Gal(b1-4)GlcNAc
# Procedure, shortened: as §1
# [5] = target: GlcNAc(b1-3)Gal(b1-4)GlcNAc(b1-3)Gal(b1-4)GlcNAc(b1-2)Man(a1-3)[GlcNAc(b1-3)Gal(b1-4)GlcNAc(b1-3)Gal(b1-4)GlcNAc(b1-2)Man(a1-6)]Man(b1-4)GlcNAc(b1-4)GlcNAc
# Procedure, shortened: as §1
# [6] = target: GlcNAc(b1-3)Gal(b1-4)GlcNAc(b1-3)Gal(b1-4)GlcNAc(b1-2)Man(a1-3)[GlcNAc(b1-3)Gal(b1-4)GlcNAc(b1-3)Gal(b1-4)GlcNAc(b1-2)Man(a1-6)]Man(b1-4)GlcNAc(b1-4)[Fuc(a1-6)]GlcNAc
# Procedure, shortened: as §1
# [7] = target: GlcNAc(b1-3)Gal(b1-4)GlcNAc(b1-3)Gal(b1-4)GlcNAc(b1-2)[GlcNAc(b1-3)Gal(b1-4)GlcNAc(b1-3)Gal(b1-4)GlcNAc(b1-6)]Man(a1-6)[GlcNAc(b1-3)Gal(b1-4)GlcNAc(b1-3)Gal(b1-4)GlcNAc(b1-2)Man(a1-3)]Man(b1-4)GlcNAc(b1-4)[Fuc(a1-6)]GlcNAc
# Procedure, shortened: as §1
# [8] = target: GlcNAc(b1-3)Gal(b1-4)GlcNAc(b1-3)Gal(b1-4)GlcNAc(b1-3)Gal(b1-4)GlcNAc(b1-2)Man(a1-3)[GlcNAc(b1-3)Gal(b1-4)GlcNAc(b1-3)Gal(b1-4)GlcNAc(b1-3)Gal(b1-4)GlcNAc(b1-2)Man(a1-6)]Man(b1-4)GlcNAc(b1-4)GlcNAc
# Procedure, shortened: as §1
# [9] = target: GlcNAc(b1-3)Gal(b1-4)GlcNAc(b1-3)Gal(b1-4)GlcNAc(b1-3)Gal(b1-4)GlcNAc(b1-2)Man(a1-3)[GlcNAc(b1-3)Gal(b1-4)GlcNAc(b1-3)Gal(b1-4)GlcNAc(b1-3)Gal(b1-4)GlcNAc(b1-2)Man(a1-6)]Man(b1-4)GlcNAc(b1-4)[Fuc(a1-6)]GlcNAc
# Procedure, shortened: as §1
# [10] = target: GlcNAc(b1-3)Gal(b1-4)GlcNAc(b1-3)Gal(b1-4)GlcNAc(b1-3)Gal(b1-4)GlcNAc(b1-2)[GlcNAc(b1-3)Gal(b1-4)GlcNAc(b1-3)Gal(b1-4)GlcNAc(b1-3)Gal(b1-4)GlcNAc(b1-6)]Man(a1-6)[GlcNAc(b1-3)Gal(b1-4)GlcNAc(b1-3)Gal(b1-4)GlcNAc(b1-3)Gal(b1-4)GlcNAc(b1-2)Man(a1-3)]Man(b1-4)GlcNAc(b1-4)[Fuc(a1-6)]GlcNAc
# Procedure, shortened: as §1
# [11] = target: GlcNAc(b1-3)Gal(b1-4)GlcNAc(b1-3)Gal(b1-4)GlcNAc(b1-3)Gal(b1-4)GlcNAc(b1-3)Gal(b1-4)GlcNAc(b1-2)Man(a1-3)[GlcNAc(b1-3)Gal(b1-4)GlcNAc(b1-3)Gal(b1-4)GlcNAc(b1-3)Gal(b1-4)GlcNAc(b1-3)Gal(b1-4)GlcNAc(b1-2)Man(a1-6)]Man(b1-4)GlcNAc(b1-4)GlcNAc
# Procedure, shortened: as §1
# [12] = target: GlcNAc(b1-3)Gal(b1-4)GlcNAc(b1-3)Gal(b1-4)GlcNAc(b1-3)Gal(b1-4)GlcNAc(b1-3)Gal(b1-4)GlcNAc(b1-2)Man(a1-3)[GlcNAc(b1-3)Gal(b1-4)GlcNAc(b1-3)Gal(b1-4)GlcNAc(b1-3)Gal(b1-4)GlcNAc(b1-3)Gal(b1-4)GlcNAc(b1-2)Man(a1-6)]Man(b1-4)GlcNAc(b1-4)[Fuc(a1-6)]GlcNAc
# Procedure, shortened: as §1
# [13] = target: GlcNAc(b1-3)Gal(b1-4)GlcNAc(b1-3)Gal(b1-4)GlcNAc(b1-3)Gal(b1-4)GlcNAc(b1-3)Gal(b1-4)GlcNAc(b1-2)[GlcNAc(b1-3)Gal(b1-4)GlcNAc(b1-3)Gal(b1-4)GlcNAc(b1-3)Gal(b1-4)GlcNAc(b1-3)Gal(b1-4)GlcNAc(b1-6)]Man(a1-6)[GlcNAc(b1-3)Gal(b1-4)GlcNAc(b1-3)Gal(b1-4)GlcNAc(b1-3)Gal(b1-4)GlcNAc(b1-3)Gal(b1-4)GlcNAc(b1-2)Man(a1-3)]Man(b1-4)GlcNAc(b1-4)[Fuc(a1-6)]GlcNAc
# Procedure, shortened: as §1
# [14] = target: GlcNAc(b1-3)Gal(b1-4)GlcNAc(b1-3)Gal(b1-4)GlcNAc(b1-3)GalNAc
# Procedure, shortened: as §1
# [15] = target: GlcNAc(b1-3)Gal(b1-4)GlcNAc(b1-3)GalNAc
# Procedure, shortened: as §1
# [16] = target: GlcNAc(b1-3)Gal(b1-4)GlcNAc(b1-3)[GlcNAc(b1-3)Gal(b1-4)GlcNAc(b1-3)]GalNAc
# Procedure, shortened: as §1
# [17] = target: GlcNAc(b1-3)Gal(b1-4)GlcNAc(b1-6)[Gal(b1-3)]GalNAc
# Procedure, shortened: as §1
# [18] = target: GlcNAc(b1-3)Gal(b1-4)GlcNAc(b1-6)[GlcNAc(b1-3)Gal(b1-3)]GalNAc
# Procedure, shortened: as §1
# [19] = target: GlcNAc(b1-3)Gal(b1-4)GlcNAc(b1-6)[GlcNAc(b1-3)]Gal(b1-4)GlcNAc
# Procedure, shortened: as §1
binder,measurement,setting,value
SabA (Helicobacter pylori) (protein) MGSSHHHHHHSSGLVPRGSHMENLYFQGEDNGFFVSAGYQIGEAVQMVKNTGELKNLNEKYEQLSQYLNQVASLKQSIQNANNIELVNSSLNYLKSFTNNNYNSTTQSPIFNAVQAVITSVLGFWSLYAGNYFTFFVGKKVGDSGQPASVQGNPPFKTIIENCSGIENCAMDQTTYDKMKKLAEDLQAAQTNSATKGNNLCALSGCAATDSTSNPPNSTVSNALNLAQQLMDLIANTKTAMMWKNIVISGVSNTSGAITSTNYPTQYAVFNNIKAMIPILQQAVTLSQSNHTLSASLQAQATGSQTNPKFAKDIYTFAQNQKQVISYAQDIFNLFNSIPAEQYKYLEKAYLKIPNAGSTPTNPYRQVVNLNQEVQTIKNNVSYYGNRVDAALSVARDVYNLKSNQAEIVTAYNDAKTLSEEISKLPHNQVNTKDIVTLPYDKNAPAAGQSNYQINPEQQSNLNQALAAMSNNPFKKVGMISSQNNNGA,glycan array binding signal (z-score),[1],-0.639
same,glycan array binding signal (z-score),[2],0.826
same,glycan array binding signal (z-score),[3],0.906
same,glycan array binding signal (z-score),[4],-0.43
same,glycan array binding signal (z-score),[5],0.315
same,glycan array binding signal (z-score),[6],0.246
same,glycan array binding signal (z-score),[7],-0.149
same,glycan array binding signal (z-score),[8],-0.025
same,glycan array binding signal (z-score),[9],0.629
same,glycan array binding signal (z-score),[10],-0.135
same,glycan array binding signal (z-score),[11],-0.132
same,glycan array binding signal (z-score),[12],0.364
same,glycan array binding signal (z-score),[13],0.605
same,glycan array binding signal (z-score),[14],-0.495
same,glycan array binding signal (z-score),[15],-0.732
same,glycan array binding signal (z-score),[16],-0.578
same,glycan array binding signal (z-score),[17],-0.39
same,glycan array binding signal (z-score),[18],-0.634
same,glycan array binding signal (z-score),[19],-1.04

# Given tab-delimited: part of the list above.
binder	measurement	setting	value
SabA (Helicobacter pylori) (protein) MGSSHHHHHHSSGLVPRGSHMENLYFQGEDNGFFVSAGYQIGEAVQMVKNTGELKNLNEKYEQLSQYLNQVASLKQSIQNANNIELVNSSLNYLKSFTNNNYNSTTQSPIFNAVQAVITSVLGFWSLYAGNYFTFFVGKKVGDSGQPASVQGNPPFKTIIENCSGIENCAMDQTTYDKMKKLAEDLQAAQTNSATKGNNLCALSGCAATDSTSNPPNSTVSNALNLAQQLMDLIANTKTAMMWKNIVISGVSNTSGAITSTNYPTQYAVFNNIKAMIPILQQAVTLSQSNHTLSASLQAQATGSQTNPKFAKDIYTFAQNQKQVISYAQDIFNLFNSIPAEQYKYLEKAYLKIPNAGSTPTNPYRQVVNLNQEVQTIKNNVSYYGNRVDAALSVARDVYNLKSNQAEIVTAYNDAKTLSEEISKLPHNQVNTKDIVTLPYDKNAPAAGQSNYQINPEQQSNLNQALAAMSNNPFKKVGMISSQNNNGA	glycan array binding signal (z-score)	[3]	0.906
same	glycan array binding signal (z-score)	[4]	-0.43
